Patent publication US20170000132A1, “BENZOXABOROLE FUNGICIDES” (SYNGENTA PARTICIPATIONS AG, priority 2013, published 2017)
Some entries share one result that the patent states for a list of compounds. At least one compound was matched to its structure with a doubt left.

Legend:
Assay type in all cases: cell-based
[1] = tested on: Monographella nivalis (Microdochium nivale); assay: Monographella nivalis / liquid culture (foot rot cereals); settings: 200 ppm, PDB, 4-5 days after application
[2] = tested on: Glomerella lagenarium (Colletotrichum lagenarium); assay: Glomerella lagenarium / liquid culture (anthracnose); settings: 200 ppm, PDB, 3-4 days after application
Pythium ultimum = Pythium ultimum / liquid culture (seedling damping off); settings: 200 ppm, potato dextrose broth, 2-3 days after application

Row | SMILES | disease control (inhibition of growth, photometric) [1] | disease control (inhibition of growth, photometric) [2] | disease control (inhibition of growth, photometric) (Pythium ultimum)
1 | Cc1csc(NN=Cc2cc(Cl)cc3c2B(O)OC3)n1 (single isomer, unassigned) [Compound 226] | at least 80% | at least 80% | at least 80%
2 | OB1OCc2cc(C=NNC(=S)NC3CCCCC3)ccc21 (single isomer, unassigned) [Compound 392] | at least 80% | – | –
3 | CNC(=S)NN=Cc1cccc2c1B(O)OC2 (single isomer, unassigned) [Compound 354] | at least 80% | at least 80% | at least 80%
4 | CCCCON=Cc1cc(C)cc2c1B(O)OC2 [Compound 447] | at least 80% | at least 80% | at least 80%
5 | C=CCNC(=S)NN=Cc1cccc2c1B(O)OC2 (single isomer, unassigned) [Compound 322] | – | at least 80% | at least 80%
6 | CON=Cc1cccc2c1B(O)OC2 (single isomer, unassigned) [Compound 435] | at least 80% | at least 80% | at least 80%
7 | OB1OCc2cc(F)cc(C=NNc3ccc(F)cc3F)c21 (single isomer, unassigned) [Compound 244] | – | at least 80% | at least 80%
8 | OB1OCc2cc(Cl)cc(C=NOCc3c(F)c(F)c(F)c(F)c3F)c21 (single isomer, unassigned) [Compound 205] | at least 80% | – | –
9 | Cc1cc(C=NOCc2ccccc2)c2c(c1)COB2O [Compound 451] | at least 80% | – | –
10 | O=C(O)CCCON=Cc1cc2c(cc1Cl)COB2O (single isomer, unassigned) [Compound 62] | – | at least 80% | at least 80%
11 | OB1OCc2cc(Cl)c(C=NNc3cc(Cl)cc(Cl)c3)cc21 (single isomer, unassigned) [Compound 20] | – | at least 80% | at least 80%
12 | O=C(NN=Cc1cc2c(cc1Cl)COB2O)Nc1ccccc1 (single isomer, unassigned) [Compound 4] | – | at least 80% | at least 80%
13 | O=C(NN=Cc1cc2c(cc1Cl)COB2O)c1ccc([N+](=O)[O-])cc1 (single isomer, unassigned) [Compound 2] | – | at least 80% | at least 80%
14 | NC(=O)C(=O)NN=Cc1cc2c(cc1Cl)COB2O (single isomer, unassigned) [Compound 15] | – | at least 80% | at least 80%
15 | O=C(NN=Cc1cc2c(cc1F)COB2O)c1ccc([N+](=O)[O-])cc1 (single isomer, unassigned) [Compound 78] | – | at least 80% | at least 80%
16 | O=C(NN=Cc1cccc2c1B(O)OC2)c1cccnc1 (single isomer, unassigned) [Compound 305] | – | at least 80% | at least 80%
17 | O=C(NN=Cc1cc2c(cc1Cl)COB2O)C1CC1 (single isomer, unassigned) [Compound 22] | – | at least 80% | at least 80%

Row | SMILES | disease control (inhibition of growth, photometric) [1] | disease control (inhibition of growth, photometric) [2] | disease control (inhibition of growth, photometric) (Pythium ultimum)
18 | CC(C)NN=Cc1cc2c(cc1F)COB2O (single isomer, unassigned) [Compound 105] | – | at least 80% | at least 80%
19 | CC(C#Cc1cccs1)=CCON=Cc1cc2c(cc1Cl)COB2O [Compound 69] | at least 80% | at least 80% | –
20 | OB1OCc2cc(F)c(C=NNC(=S)N3CCCC3)cc21 (single isomer, unassigned) [Compound 100] | – | at least 80% | at least 80%
21 | Cn1cc(C(=O)NN=Cc2cc3c(cc2Cl)COB3O)c(C(F)(F)F)n1 (single isomer, unassigned) [Compound 34] | – | at least 80% | at least 80%
22 | CCC(=O)OCNN=Cc1cc2c(cc1F)COB2O (single isomer, unassigned) [Compound 104] | – | at least 80% | at least 80%
23 | COC(=O)Cc1ccccc1CON=Cc1ccc2c(c1)COB2O (single isomer, unassigned) [Compound 417] | at least 80% | at least 80% | –
24 | OB1OCc2cc(Cl)c(C=NNc3cccc(Cl)n3)cc21 (single isomer, unassigned) [Compound 7] | – | at least 80% | at least 80%
25 | CC(ON=Cc1cc(Cl)cc2c1B(O)OC2)c1cc(Cl)cc(Cl)c1 (single isomer, unassigned) [Compound 216] | at least 80% | – | –
26 | NN=Cc1cc(Cl)cc2c1B(O)OC2 (single isomer, unassigned) [Compound 229] | at least 80% | – | at least 80%
27 | OB1OCc2cc(F)cc(C=NNc3ccc(Cl)cc3)c21 (single isomer, unassigned) [Compound 262] | – | at least 80% | at least 80%
28 | OB1OCc2cc(C=NNc3cccc(Cl)n3)ccc21 (single isomer, unassigned) [Compound 366] | at least 80% | at least 80% | –
29 | O=C(NN=Cc1cc2c(cc1F)COB2O)c1cccnc1 (single isomer, unassigned) [Compound 81] | – | at least 80% | at least 80%
30 | OB1OCc2cc(Cl)c(C=NNc3ncc(C(F)(F)F)cc3Cl)cc21 (single isomer, unassigned) [Compound 28] | – | at least 80% | at least 80%
31 | Cc1ccc(NN=Cc2cc3c(cc2Cl)COB3O)cc1 (single isomer, unassigned) [Compound 10] | – | at least 80% | at least 80%
32 | OB1OCc2cc(Cl)c(C=NNC(=S)Nc3ccccc3)cc21 (single isomer, unassigned) [Compound 35] | – | at least 80% | at least 80%
33 | O=C(NN=Cc1cc(Cl)cc2c1B(O)OC2)c1ccccc1[N+](=O)[O-] (single isomer, unassigned) [Compound 163] | – | at least 80% | at least 80%
